Assay: Haematological changes after treatment of infected vervet monkeys
Assay type: in vivo, vervet monkey
Conditions: DB829 IM or DB868 orally

Compound: N=C(N)c1ccc(-c2ccc(-c3ccc(C(=N)N)cn3)o2)nc1 [DB829, 2,5-bis(5-amidino-2-pyridyl)furan]
- time for RBC counts to recover to baseline levels upon treatment: 1–2 months
